## Results of single-concentration screens

Sequences of proteins named here, by UniProt entry; tags and fusion partners are left off. Residues count along the entry.
UniProt A4I591, 1-473: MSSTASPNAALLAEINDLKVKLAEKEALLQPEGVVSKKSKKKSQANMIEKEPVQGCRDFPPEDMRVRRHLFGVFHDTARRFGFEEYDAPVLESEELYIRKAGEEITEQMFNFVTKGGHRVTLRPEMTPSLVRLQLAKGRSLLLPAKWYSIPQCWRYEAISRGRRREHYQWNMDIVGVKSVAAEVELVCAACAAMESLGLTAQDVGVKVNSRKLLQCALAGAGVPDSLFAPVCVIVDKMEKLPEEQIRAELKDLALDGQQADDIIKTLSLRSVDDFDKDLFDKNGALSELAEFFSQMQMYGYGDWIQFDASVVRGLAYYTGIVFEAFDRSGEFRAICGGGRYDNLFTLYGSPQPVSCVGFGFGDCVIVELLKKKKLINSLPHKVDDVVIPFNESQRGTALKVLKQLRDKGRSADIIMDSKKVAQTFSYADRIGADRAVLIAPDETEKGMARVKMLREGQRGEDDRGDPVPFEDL
UniProt P9WFT3, whole entry: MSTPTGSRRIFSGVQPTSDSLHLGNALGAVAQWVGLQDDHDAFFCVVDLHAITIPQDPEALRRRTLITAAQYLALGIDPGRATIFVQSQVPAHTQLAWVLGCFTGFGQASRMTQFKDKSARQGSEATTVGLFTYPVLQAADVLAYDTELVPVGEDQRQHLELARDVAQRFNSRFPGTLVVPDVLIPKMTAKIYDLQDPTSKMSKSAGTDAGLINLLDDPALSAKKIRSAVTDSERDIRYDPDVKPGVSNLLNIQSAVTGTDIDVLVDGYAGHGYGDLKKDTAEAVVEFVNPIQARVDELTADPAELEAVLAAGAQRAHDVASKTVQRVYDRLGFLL
UniProt P9WNZ1, whole entry: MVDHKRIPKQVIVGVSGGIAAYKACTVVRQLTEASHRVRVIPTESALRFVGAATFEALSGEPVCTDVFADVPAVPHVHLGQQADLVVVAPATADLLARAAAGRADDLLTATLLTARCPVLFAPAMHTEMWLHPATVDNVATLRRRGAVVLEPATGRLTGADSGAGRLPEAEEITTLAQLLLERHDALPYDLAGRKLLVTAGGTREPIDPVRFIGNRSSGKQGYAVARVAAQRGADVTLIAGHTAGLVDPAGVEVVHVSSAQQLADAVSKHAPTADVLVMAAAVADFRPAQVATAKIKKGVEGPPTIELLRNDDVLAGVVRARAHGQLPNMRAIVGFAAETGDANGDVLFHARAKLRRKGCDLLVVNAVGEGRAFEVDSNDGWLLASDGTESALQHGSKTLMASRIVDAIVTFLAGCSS

From ChEMBL document CHEMBL3988442, “University of Dundee, Small-Polar-MMV Screening Library” (2021).

Each number is a percent effect as filed. How 0% and 100% were set is not recorded. Most values in the screen are low, and negative values occur. The compounds are a random part of those screened.

LiHisRS: 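Enzyme assay of histidyl-tRNA synthetase; the read-out is not stated. Target: Histidine-tRNA ligase, Leishmania infantum (UniProt A4I591). Tested at 30 µM. Direction is inferred from retests: higher values go with stronger inhibition. The assay is labelled LdHisRS but filed under L. infantum. Of about 69,000 compounds tested this way, about 410 (0.6%) reached 50% or more in at least one test.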
MtTrpRS: 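Tryptophan-tRNA ligase, Mycobacterium tuberculosis (UniProt P9WFT3). Enzyme assay of tryptophanyl-tRNA synthetase; the read-out is not stated. Tested at 10 µM. Higher most likely means stronger inhibition; the record gives no direction and few retests gave an IC50. About 65,000 compounds were tested under these conditions; 0.098% (about 64) showed 50% or more at least once.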
CoaBC: 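Coenzyme A biosynthesis protein CoaBC, Mycobacterium tuberculosis (UniProt P9WNZ1). Enzyme assay of CoaBC with a phosphate dye (Biomol Green) read at 650 nm. Compounds at 30 µM. Higher reads as stronger inhibition, judged from the few compounds that gave an IC50. Most strong results did not repeat in a second test. Size under these conditions: about 67,000 compounds, about 40 of them at 50% or above in at least one test.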

With Cc1cn2c(n1)CCC(NC(=O)CNS(C)(=O)=O)C2 (configuration not stated) the screen gave LiHisRS: 9.821%; MtTrpRS: 2.39%; CoaBC: 5.372%. With CC(c1cc(F)ccc1F)N(C)C(=O)NCc1ccnc(N(C)C)c1 (configuration not stated) the screen gave LiHisRS: 8.929%; MtTrpRS: -1.557%; CoaBC: 2.5%. For O=C1CCCN1CCN1CC[C@@]2(O)CCN(c3ncccn3)C[C@H]2C1 the result was LiHisRS: -31.15%; MtTrpRS: 0%; CoaBC: 4.859%. Cc1csc(N2CCN(C(=O)Cc3ccc(C)s3)CC2)n1 read LiHisRS: 35.71%; MtTrpRS: -2.582%; CoaBC: 1.068%. Cc1nccn1CCC1CCCCN1Cc1ccc2c(c1)OCCO2 (configuration not stated) gave LiHisRS: 13.54%; MtTrpRS: -1.213%; CoaBC: 5.913%. CCn1c(C2CCN(C(=O)c3cc(CC(C)C)on3)CC2)nn(C)c1=O read LiHisRS: 11.9%; MtTrpRS: -1.584%; CoaBC: 3.398%. For O=C(C(CNCc1cccs1)c1ccccc1)N1CCOCC1 (configuration not stated) the result was LiHisRS: 5.882%; MtTrpRS: -4.454%; CoaBC: 0.2538%. For Cc1cc(CN2CCN(C(C)c3nc(C4CC4)no3)CC2)no1 (configuration not stated) the result was LiHisRS: 16.22%; MtTrpRS: -3.801%; CoaBC: 8.616%.

c1cnc(N2CCC3(COCCN(CC4CCOCC4)C3)C2)nc1 (configuration not stated) read LiHisRS: 7.965%; MtTrpRS: -3.266%; CoaBC: 7.431%. Clc1ccc(C(CNCc2cccnc2)n2cccn2)cc1 (configuration not stated) gave LiHisRS: 18.75%; MtTrpRS: 12.72%; CoaBC: 17.49%. Result for CN(C)C(=O)NC1COC2(CCN(Cc3nccn3C)CC2)C1 (configuration not stated) was LiHisRS: 6.796%; MtTrpRS: 1.213%; CoaBC: 0.1267%. Cc1cc(-c2cnc(N3CCN(C)CC3)nc2C(C)C)on1 gave LiHisRS: 4.196%; MtTrpRS: 4.112%; CoaBC: 6.295%. CNC(=O)c1cc2c(nc1NCC1CC1)CCN(S(=O)(=O)C1CC1)CC2 gave LiHisRS: 8.738%; MtTrpRS: 3.859%; CoaBC: -2.155%. CCc1ccsc1C(=O)N1CCN(CC(O)CC)CC1 (configuration not stated) read LiHisRS: 12.5%; MtTrpRS: 1.394%; CoaBC: -0.2635%. For CC(C)N[C@@H]1CO[C@H](CNC(=O)c2cccs2)[C@H]1O the result was LiHisRS: 16.67%; MtTrpRS: 8.208%; CoaBC: -3.386%. With Cc1cc(C)nc(NC2CCc3nc(C)nn3C2)n1 (configuration not stated) the screen gave LiHisRS: 27.4%; MtTrpRS: -1.624%; CoaBC: 6.773%.

CN1[C@@H](C(=O)NCC2CC2)C[C@H]2CN(Cc3ccsc3)C[C@H]21 gave LiHisRS: 4.587%; MtTrpRS: 11.61%; CoaBC: 0.2353%. For CC1CN(C)CCN1C(=O)c1cccn1Cc1cccnc1 (configuration not stated) the result was LiHisRS: 4.444%; MtTrpRS: -0.7988%; CoaBC: 1.703%. For C/C=C(\C)CN1CCC2(CCC(=O)N2OCc2ccccc2F)CC1 the result was LiHisRS: -14.88%; MtTrpRS: 3.173%; CoaBC: 5.832%. COC(=O)c1ccc(S(=O)(=O)NCC(O)c2sccc2C)cc1 (configuration not stated) gave LiHisRS: 20.87%; MtTrpRS: -3.267%; CoaBC: 2.326%. Result for Cc1nn2c(NCC(=O)NC3CC3)cc(-c3ccccc3)nc2c1C was LiHisRS: 21.88%; MtTrpRS: 0.5623%; CoaBC: 8.026%. CN(C)C(=O)C1CN(Cc2ccsc2)CCN(S(C)(=O)=O)C1 (configuration not stated) read LiHisRS: 9.375%; CoaBC: 1.961%. O=C(CC1CC1)N1C[C@H]2CCN[C@H]2C1 gave LiHisRS: 19.23%; CoaBC: 3.758%. Cc1nc(CCNC(=O)c2cc(C(C)C)nn2C)sc1C read LiHisRS: 13.83%; MtTrpRS: 2.065%; CoaBC: 5.387%.

CN(Cc1cccnc1)[C@@H]1CN(c2ncc(F)cn2)[C@@H]2CCCO[C@H]12 read LiHisRS: 2.778%; MtTrpRS: -7.535%; CoaBC: -12.95%. CNc1ncc(CN(C)C(=O)[C@@]23CNC[C@@H]2CN(C(=O)C2CC2)C3)cn1 read LiHisRS: 14%; MtTrpRS: -2.144%; CoaBC: -3.96%.

3 of the entries, repeated:

structure	LiHisRS	MtTrpRS	CoaBC
CCc1ccsc1C(=O)N1CCN(CC(O)CC)CC1 (configuration not stated)	12.5%	1.394%	-0.2635%
CNC(=O)c1cc2c(nc1NCC1CC1)CCN(S(=O)(=O)C1CC1)CC2	8.738%	3.859%	-2.155%
c1cnc(N2CCC3(COCCN(CC4CCOCC4)C3)C2)nc1 (configuration not stated)	7.965%	-3.266%	7.431%